Reference: doi:10.1101/2024.10.16.618570 (bioRxiv, 2024)
Where two headings read alike, the source gives them in different places. Results are given in words; binding and its absence hold for the method and conditions named. Some binding calls cover weakened binding; strength is not graded here. Where a sequence is shown, tags or fusion partners need not be part of it.

How the values were obtained:
[1] = target: BAK (BCL-2 homologous antagonist/killer), endogenous in mouse liver mitochondria (mouse (endogenous in mouse liver mitochondria)) (UniProt O08734); test: native gel or EMSA
[2] = target: BAK (BCL-2 homologous antagonist/killer), endogenous in mouse liver mitochondria (mouse (endogenous in mouse liver mitochondria)) (UniProt O08734); test: native gel or EMSA; remark: listed apart in the source

B1: BAK (BCL-2 homologous antagonist/killer), endogenous in mouse liver mitochondria (natural protein, UniProt O08734 1-209, looked up)
chain: MASGQGPGPPKVGCDESPSPSEQQVAQDTEEVFRSYVFYLHQQEQETQGAAAPANPEMDNLPLEPNSILGQVGRQLALIGDDINRRYDTEFQNLLEQLQPTAGNAYELFTKIASSLFKSGISWGRVVALLGFGYRLALYVYQRGLTGFLGQVTCFLADIILHHYIARWIAQRGGWVAALNFRRDPILTVMVIFGVVLLGQFVVHRFFRS
Question: For B1, which binding [1] is on record?
Answer: binds

Question: And the binding [2]?
Answer: no binding (condition: without cBID)
